Experimental data published in patent US20160159910A1.

How the values were obtained:
human B7-H4 (human) [1] = assay: FACS on stable cell line expressing recombinant B7-H4 (hybridoma screen)
human B7-H4 (human) [2] = assay: fluorescence microscopy of SK-BR3 cells stained with Dylight 594-conjugated 9B9 (10 µg/mL in the text)
human B7-H4 (human) [3] = assay: FACS on MX-1 human breast cancer tumor cells with endogenous human B7-H4
human B7-H4 (human) [4] = assay: confocal microscopy of MX-1 cells with the antibody conjugated to a TAMRA/FAM FRET probe with a cathepsin cleavage sequence (2 µg/ml in the text)

B1: murine monoclonal antibody 9B9 (antibody, V domains shown)
VH: QVQLQQSGAELMKPGASVKMSCKATGYTFSSYWIEWVKQRPGHGLEWIGEILPGTSITTYNAKFKVKATFTADTSSNTAYMQLSSLTSEDSAVYFCARYYFGSSSFYFDYWGQGTSLTVSS
VL: QAVVTQESALTTSPGDTVTLTCRSSTGAVTTSNYANWVQEKPDHLFTGLIGGTNNRVPGVPARFSGSLIGDKAALTITGAQTEDEAMYFCALWYNNHWVFGGGTKLE
In the case of B1, the binding (human B7-H4 (human) [1]) is reported as “binds”, the binding (human B7-H4 (human) [2]) is reported as “binds” and the binding (human B7-H4 (human) [3]) is reported as “binds”.

B2: chimeric antibody ch22C10 (antibody, human IgG1, V domains shown)
VH: QVQLQQPGAELVKPGTSVKLSCKASGYTFTNFWIHWVIQRPGQGLEWIGEIDPSDSYTNYNQKFKGKATLTVDKSSNTAYMQLSSLTSEDSAVYYCSREITTVDYWGQGTTLTVSS
VL: QIVLTQSPTIMSASPGEKVTLTCSATSSISYMHWYQQKPGTSPKGWIYDTSKLAHGVPARFSGSGSGTSYSLTISSMEAEDAATYYCHQRRSYPFTFGSGTKLEIK
With B2 the binding (human B7-H4 (human) [4]) was “binds”.

B3: murine monoclonal antibody 22C10 (antibody, V domains shown)
VH: QVQLQQPGAELVKPGTSVKLSCKASGYTFTNFWIHWVIQRPGQGLEWIGEIDPSDSYTNYNQKFKGKATLTVDKSSNTAYMQLSSLTSEDSAVYYCSREITTVDYWGQGTTLTVSS
VL: QIVLTQSPTIMSASPGEKVTLTCSATSSISYMHWYQQKPGTSPKGWIYDTSKLAHGVPARFSGSGSGTSYSLTISSMEAEDAATYYCHQRRSYPFTFGSGTKLEIK
For B3, the binding (human B7-H4 (human) [1]) was “binds”.

B4: murine monoclonal antibody 32D6 (antibody, V domains shown)
VH: EVQLQQSGPDLVKPGASVKISCKASGYSFTGYYIHWMKQSHGKSLEWIGRVNPNNGDPIYNQKFRGKAILTVDQSSNTAYMELRSLTSEASAVYYCARVLFYYGSPFAYWGQGTLVTVSA
VL: DIVMTQSPSSLIVTAGEKVTMSCRSSQSLFDSGSQRNYLTWFHQKPGRPPKLLIYWASTRESGVPDRFTGSGSGTDFTLTISSVQTEDLAVYFCQNDYSFPFTFGSGTKLEEK
With B4 the binding (human B7-H4 (human) [1]) was “binds”.

Results are given in words; binding and its absence hold for the method and conditions named. Binding can be weak; no strength is given.
